According to patent publication US20260224494A1, “MILVEXIAN PHARMACEUTICAL COMPOSITIONS” (BRISTOL-MYERS SQUIBB COMPANY, priority 2023, published 2026):
Some of these results come from one statement about several compounds together.

Assay: Solubility of milvexian forms in organic solvent systems
Type: physicochemical
Settings: DCM/MeOH solvent systems of Table 12
Protocol: While heating of the feed solution is a viable solution for production, it is a more complex set-up and with risk of crashing out dissolved solids in case of cold spots and plant safety. Various solvent systems (See Table 11 below) were investigated with primary focus on solvent systems containing DCM due to its low boiling point and excellent solubilization properties.
Based on the data it was determined that 70/30 w/w % DCM/MeOH and 80/20 w/w % were promising solvent mixtures and more accurate solubility determination was carried out for 80/20 w/w % DCM/MeOH for both FORM A and P1.Acetone solvate at 20° C. with the results shown in Table 12 below.
P1.Acetone was the preferred crystalline form of milvexian for physical stability and manufacturability reasons. Based on the above, 80/20 w/w % DCM/MeOH solvent system was selected for development due to highly increase solubility over the 90/10 w/w % Acetone/Water solvent system.

C[C@@H]1CCC[C@H](n2cnc(-c3cc(Cl)ccc3-n3cc(Cl)nn3)cc2=O)c2cc(ccn2)-c2c(cnn2C(F)F)NC1=O [P1.Acetone solvate]
solubilities achievable: > 220 mg/mL
